Assay results published in the supplement of paper PMC10849652.
The other results are listed elsewhere or left out.

Chains of the proteins cited; added tags and fusions are not shown. Lines headed by an entry give the natural chain unless they say otherwise; changes in a name come on top.
UniProt Q96I59: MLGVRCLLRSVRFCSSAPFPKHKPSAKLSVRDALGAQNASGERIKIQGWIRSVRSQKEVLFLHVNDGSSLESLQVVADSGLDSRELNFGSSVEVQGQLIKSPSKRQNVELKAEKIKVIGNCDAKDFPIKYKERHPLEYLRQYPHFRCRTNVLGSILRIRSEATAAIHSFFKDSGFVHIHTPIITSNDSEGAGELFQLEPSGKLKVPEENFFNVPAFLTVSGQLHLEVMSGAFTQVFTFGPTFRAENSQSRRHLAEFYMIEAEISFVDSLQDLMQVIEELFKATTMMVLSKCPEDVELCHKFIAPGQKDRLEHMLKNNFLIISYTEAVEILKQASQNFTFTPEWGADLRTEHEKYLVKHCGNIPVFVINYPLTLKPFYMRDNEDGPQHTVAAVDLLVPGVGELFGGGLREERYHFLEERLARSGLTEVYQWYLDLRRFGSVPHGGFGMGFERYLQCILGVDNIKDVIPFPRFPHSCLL
UniProt P62166, whole entry, looked up: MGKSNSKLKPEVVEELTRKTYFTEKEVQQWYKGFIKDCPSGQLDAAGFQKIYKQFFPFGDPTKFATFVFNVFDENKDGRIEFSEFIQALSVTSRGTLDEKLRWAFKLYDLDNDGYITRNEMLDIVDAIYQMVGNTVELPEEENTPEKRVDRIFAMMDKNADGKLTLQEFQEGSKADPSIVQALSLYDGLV
UniProt Q8IW45: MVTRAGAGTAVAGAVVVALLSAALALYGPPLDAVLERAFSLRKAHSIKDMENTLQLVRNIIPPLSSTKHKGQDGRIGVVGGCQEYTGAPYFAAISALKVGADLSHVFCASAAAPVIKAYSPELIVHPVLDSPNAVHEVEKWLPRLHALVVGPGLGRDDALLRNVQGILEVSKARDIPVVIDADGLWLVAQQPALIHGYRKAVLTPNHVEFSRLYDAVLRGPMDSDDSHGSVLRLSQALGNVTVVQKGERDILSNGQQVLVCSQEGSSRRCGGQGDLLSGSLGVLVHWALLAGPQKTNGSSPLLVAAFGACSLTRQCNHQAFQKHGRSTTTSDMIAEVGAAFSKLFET
UniProt Q13564: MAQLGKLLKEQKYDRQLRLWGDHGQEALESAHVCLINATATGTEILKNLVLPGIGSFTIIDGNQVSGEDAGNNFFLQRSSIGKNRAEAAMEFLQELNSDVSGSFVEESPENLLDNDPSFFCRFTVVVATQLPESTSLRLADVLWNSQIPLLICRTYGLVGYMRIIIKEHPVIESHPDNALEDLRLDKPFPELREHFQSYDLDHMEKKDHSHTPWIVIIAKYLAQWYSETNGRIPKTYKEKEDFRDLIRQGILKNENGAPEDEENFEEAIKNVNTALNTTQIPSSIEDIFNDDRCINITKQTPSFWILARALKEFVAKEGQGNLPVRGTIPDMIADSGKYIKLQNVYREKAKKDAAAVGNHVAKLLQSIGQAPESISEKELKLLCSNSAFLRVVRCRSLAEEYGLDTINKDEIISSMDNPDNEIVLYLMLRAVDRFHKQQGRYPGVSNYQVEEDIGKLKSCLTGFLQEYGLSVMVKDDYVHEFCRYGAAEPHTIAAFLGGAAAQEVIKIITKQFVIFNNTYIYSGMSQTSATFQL
UniProt Q96S97: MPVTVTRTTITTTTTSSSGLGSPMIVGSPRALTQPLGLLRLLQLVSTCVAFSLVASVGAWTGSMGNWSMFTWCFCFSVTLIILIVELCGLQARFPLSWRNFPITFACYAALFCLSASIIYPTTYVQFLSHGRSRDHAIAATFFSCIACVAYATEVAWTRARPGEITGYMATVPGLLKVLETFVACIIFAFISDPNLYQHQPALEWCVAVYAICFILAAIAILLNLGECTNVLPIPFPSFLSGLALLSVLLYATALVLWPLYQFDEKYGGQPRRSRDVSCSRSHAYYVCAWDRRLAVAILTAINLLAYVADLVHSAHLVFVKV
UniProt O43639, whole entry, looked up: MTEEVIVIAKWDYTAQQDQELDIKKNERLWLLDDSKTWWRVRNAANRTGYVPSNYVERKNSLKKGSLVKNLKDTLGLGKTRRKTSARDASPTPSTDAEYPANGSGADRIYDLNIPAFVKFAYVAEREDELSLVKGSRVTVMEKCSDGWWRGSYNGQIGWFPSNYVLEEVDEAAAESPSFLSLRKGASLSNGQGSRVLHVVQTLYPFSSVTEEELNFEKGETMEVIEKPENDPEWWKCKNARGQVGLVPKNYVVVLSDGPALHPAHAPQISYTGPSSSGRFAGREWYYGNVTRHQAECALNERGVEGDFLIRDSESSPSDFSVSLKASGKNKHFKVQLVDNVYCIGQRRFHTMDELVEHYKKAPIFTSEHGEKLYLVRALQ
UniProt O43776: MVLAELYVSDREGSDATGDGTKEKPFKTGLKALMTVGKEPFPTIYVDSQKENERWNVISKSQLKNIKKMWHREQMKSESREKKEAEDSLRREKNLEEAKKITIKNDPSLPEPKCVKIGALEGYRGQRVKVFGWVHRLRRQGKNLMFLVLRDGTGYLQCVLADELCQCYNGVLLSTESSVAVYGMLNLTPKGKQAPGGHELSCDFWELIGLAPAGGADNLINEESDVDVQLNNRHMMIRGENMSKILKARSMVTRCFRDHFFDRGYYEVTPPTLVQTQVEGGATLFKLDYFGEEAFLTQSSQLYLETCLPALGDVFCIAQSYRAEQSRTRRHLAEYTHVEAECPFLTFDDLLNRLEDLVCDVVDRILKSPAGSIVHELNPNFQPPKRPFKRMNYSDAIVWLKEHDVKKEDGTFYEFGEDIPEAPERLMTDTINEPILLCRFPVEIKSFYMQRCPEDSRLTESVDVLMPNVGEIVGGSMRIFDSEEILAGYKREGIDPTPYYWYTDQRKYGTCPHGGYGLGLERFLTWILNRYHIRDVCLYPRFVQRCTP
UniProt Q9BPX3, whole entry, looked up: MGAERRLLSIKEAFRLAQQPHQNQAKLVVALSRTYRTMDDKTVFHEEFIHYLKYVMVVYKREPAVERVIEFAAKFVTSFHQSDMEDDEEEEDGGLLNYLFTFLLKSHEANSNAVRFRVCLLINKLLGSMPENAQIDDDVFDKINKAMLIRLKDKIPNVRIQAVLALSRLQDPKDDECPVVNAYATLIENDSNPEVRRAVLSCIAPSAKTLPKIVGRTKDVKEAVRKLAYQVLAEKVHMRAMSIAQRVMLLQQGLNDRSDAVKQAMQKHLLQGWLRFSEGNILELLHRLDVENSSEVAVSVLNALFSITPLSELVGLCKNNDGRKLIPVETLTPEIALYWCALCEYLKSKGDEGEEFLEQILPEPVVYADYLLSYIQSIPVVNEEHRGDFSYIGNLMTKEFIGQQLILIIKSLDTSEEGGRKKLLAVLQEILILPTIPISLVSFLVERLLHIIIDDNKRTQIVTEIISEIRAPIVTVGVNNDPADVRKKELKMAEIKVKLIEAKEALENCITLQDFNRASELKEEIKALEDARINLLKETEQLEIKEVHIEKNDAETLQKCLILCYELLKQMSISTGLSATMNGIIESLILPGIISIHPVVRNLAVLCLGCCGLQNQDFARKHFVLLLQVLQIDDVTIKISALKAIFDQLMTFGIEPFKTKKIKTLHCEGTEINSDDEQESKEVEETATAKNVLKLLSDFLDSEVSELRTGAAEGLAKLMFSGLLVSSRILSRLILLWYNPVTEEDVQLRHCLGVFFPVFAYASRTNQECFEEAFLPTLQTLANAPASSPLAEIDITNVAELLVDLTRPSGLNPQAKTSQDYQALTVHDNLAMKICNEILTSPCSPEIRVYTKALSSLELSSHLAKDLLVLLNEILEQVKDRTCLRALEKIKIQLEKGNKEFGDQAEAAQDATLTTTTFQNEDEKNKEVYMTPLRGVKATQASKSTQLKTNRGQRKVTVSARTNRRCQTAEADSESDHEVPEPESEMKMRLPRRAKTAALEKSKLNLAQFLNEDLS
UniProt Q969H8: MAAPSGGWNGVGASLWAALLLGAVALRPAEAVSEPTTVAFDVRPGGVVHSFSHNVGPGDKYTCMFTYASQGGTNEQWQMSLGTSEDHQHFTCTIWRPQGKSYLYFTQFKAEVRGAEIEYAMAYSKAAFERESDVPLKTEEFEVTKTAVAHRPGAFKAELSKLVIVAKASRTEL
UniProt Q9NR45: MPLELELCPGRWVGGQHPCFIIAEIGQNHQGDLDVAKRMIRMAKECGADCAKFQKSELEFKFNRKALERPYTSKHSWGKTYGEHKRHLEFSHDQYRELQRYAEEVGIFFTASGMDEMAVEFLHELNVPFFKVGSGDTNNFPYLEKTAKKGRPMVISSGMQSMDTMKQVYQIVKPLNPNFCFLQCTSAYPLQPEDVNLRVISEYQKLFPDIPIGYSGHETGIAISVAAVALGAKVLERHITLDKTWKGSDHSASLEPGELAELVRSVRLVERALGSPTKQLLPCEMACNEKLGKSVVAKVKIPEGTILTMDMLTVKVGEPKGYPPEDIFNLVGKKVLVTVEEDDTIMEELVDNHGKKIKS
UniProt Q14686, whole entry, looked up: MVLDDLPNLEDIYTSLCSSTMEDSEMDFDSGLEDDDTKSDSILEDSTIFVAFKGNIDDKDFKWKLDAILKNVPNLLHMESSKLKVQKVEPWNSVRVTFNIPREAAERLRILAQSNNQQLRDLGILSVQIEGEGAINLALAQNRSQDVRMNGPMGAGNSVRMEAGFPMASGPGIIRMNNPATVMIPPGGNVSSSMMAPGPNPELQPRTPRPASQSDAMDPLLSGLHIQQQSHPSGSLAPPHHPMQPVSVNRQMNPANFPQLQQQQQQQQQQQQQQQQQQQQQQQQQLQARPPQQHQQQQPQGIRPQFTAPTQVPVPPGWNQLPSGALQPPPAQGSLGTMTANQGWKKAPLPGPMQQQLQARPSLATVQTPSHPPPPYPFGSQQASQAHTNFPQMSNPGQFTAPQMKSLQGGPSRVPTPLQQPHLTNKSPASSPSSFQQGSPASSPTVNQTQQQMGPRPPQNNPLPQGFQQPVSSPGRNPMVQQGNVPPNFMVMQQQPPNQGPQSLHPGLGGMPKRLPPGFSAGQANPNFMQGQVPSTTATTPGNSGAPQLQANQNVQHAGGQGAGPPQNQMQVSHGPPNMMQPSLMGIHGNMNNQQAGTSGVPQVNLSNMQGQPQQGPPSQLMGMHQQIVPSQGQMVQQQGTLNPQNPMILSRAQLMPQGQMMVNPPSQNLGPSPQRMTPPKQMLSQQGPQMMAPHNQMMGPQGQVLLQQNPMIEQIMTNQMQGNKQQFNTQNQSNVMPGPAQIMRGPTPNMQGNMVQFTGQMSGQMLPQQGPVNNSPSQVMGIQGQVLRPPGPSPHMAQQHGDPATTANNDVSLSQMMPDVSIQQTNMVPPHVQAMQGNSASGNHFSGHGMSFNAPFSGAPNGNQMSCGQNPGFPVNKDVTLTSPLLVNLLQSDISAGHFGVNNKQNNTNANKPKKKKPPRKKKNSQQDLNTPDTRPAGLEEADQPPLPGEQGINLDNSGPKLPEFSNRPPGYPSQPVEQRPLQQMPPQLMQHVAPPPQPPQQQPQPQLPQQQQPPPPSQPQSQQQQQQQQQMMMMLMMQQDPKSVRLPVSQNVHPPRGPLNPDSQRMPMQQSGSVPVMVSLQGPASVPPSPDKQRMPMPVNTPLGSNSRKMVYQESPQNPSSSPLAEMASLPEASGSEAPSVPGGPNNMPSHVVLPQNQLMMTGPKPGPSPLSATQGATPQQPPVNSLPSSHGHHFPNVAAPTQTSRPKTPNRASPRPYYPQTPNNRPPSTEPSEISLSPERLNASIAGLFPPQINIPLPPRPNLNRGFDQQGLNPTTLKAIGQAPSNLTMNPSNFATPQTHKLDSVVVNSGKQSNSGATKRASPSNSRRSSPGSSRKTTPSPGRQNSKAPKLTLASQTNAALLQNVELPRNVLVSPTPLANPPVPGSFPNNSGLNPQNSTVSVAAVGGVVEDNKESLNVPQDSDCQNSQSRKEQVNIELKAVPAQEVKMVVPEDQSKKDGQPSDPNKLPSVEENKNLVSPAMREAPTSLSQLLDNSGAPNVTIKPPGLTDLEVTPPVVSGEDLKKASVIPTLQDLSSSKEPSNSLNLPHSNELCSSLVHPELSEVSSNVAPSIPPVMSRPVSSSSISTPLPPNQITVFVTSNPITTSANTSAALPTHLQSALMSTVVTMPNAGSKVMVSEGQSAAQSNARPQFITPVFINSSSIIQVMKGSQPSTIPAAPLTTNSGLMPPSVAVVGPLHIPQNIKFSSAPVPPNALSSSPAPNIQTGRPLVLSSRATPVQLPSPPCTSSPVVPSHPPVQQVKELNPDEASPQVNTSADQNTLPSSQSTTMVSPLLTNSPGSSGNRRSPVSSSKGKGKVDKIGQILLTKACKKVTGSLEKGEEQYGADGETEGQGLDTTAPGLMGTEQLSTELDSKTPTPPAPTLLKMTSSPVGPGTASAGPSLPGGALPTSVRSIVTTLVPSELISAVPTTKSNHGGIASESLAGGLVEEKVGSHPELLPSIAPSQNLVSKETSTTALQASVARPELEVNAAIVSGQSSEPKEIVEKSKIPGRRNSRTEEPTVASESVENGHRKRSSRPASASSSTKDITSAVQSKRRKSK

How the values were obtained:
Test in all cases: log2 fold change, soluble protein after heating vs DMSO (PISA); higher = thermal stabilisation; K562 lysate, 10 uM; active = over 0.2 and 3.5 SD of the protein, either way, in both replicates (recomputed)
erlotinib = compound: C#Cc1cccc(Nc2ncnc3cc(OCCOC)c(OCCOC)cc23)c1 [erlotinib]
Procedure, shortened: (§1)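 Soluble protein was defined as the supernatant remaining after 21,000xg for 90 min, following pooling of heated aliquots and adjustment to 0.5% NP-40 at 4°C. Before that, crude K562 extract at 1 mg/mL protein in PBS pH 7.4 with 1 mM MgCl2 was treated with 10 μM compound for 30 min and heated for 3 min across 48°C-58°C. Quantification used TMTpro 16plex LC-MS/MS with channel sums equalised, and values are log-two fold changes in thermal stability relative to solvent controls from duplicates.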

[1] = compound: C/C(=N\NC(=O)C1=CC(=CC=C1)S(=O)(=O)N2CCOCC2)/C3=C(C=CC(=C3)Cl)O
Procedure, shortened: as §1

[2] = compound: C1=CC(=CC=C1C2=NC3=C(N2)C=C(C=C3)C(=O)N)OC4=CC=C(C=C4)Cl
Procedure, shortened: as §1

[3] = compound: C1=CC2=C(C=CC(=C2)/C=C\3/C(=O)NC(=NCC4=CC=CS4)S3)N=C1
Procedure, shortened: as §1

[4] = compound: C1=CC2=NC=CN=C2C=C1/C=C/3\C(=O)NC(=O)S3
Procedure, shortened: as §1

[5] = compound: C1=CC=C(C=C1)C2=NC(=C(N2)C3=CC=NC=C3)C4=CC(=C(C=C4)Cl)O
Procedure, shortened: as §1

[6] = compound: C1=CC=C2C(=C1)C3=NNC4=CC=CC(=C43)C2=O
Procedure, shortened: as §1

[7] = compound: C1CCN(C1)C(=O)NC2=CC=CC(=C2)NC3=NC=C(C(=N3)NCCC4=CN=CN4)Br
Procedure, shortened: as §1

[8] = compound: C1CN(CCC1(CC2=CC=C(C=C2)Cl)N)C3=NC=NC4=C3C=CN4
Procedure, shortened: as §1

IRAK-1-4 Inhibitor I = compound: C1COCCN1CCN2C3=CC=CC=C3N=C2NC(=O)C4=CC(=CC=C4)[N+](=O)[O-] [IRAK-1-4 Inhibitor I]
Procedure, shortened: as §1

ibrutinib = compound: C=CC(=O)N1CCC[C@@H](n2nc(-c3ccc(Oc4ccccc4)cc3)c3c(N)ncnc32)C1 [ibrutinib]
Procedure, shortened: as §1

[9] = compound: CC(=O)c1cnc2ccc(-c3cc(Cl)c(O)c(Cl)c3)nc2c1N[C@H]1CC[C@H](CN(C)C)CC1
Procedure, shortened: as §1

ralimetinib = compound: CC(C)(C)Cn1c(N)nc2ccc(-c3[nH]c(C(C)(C)C)nc3-c3ccc(F)cc3)nc21 [ralimetinib]
Procedure, shortened: as §1

[10] = compound: CC(C)(O)CC(=O)NCCn1ccc2ncnc(Nc3ccc(Oc4cccc(C(F)(F)F)c4)c(Cl)c3)c21
Procedure, shortened: as §1

[11] = compound: CC(C)C1=C2N=C(C=C(N2N=C1)NCC3=CC=CC=C3)NCCCCCCN
Procedure, shortened: as §1

[12] = compound: CC1=C(C(CC(=O)N1)C2=CC=C(C=C2)C(F)(F)F)C(=O)NC3=C(C=C4C(=C3)C=NN4)F
Procedure, shortened: as §1

[13] = compound: CC1=C(C2=C(C=C1)C(=O)C3=CC=CC=C3N2CCCN)C
Procedure, shortened: as §1

[14] = compound: CC1=C(C=C(C=C1)NC(=O)C2=CC(=CC=C2)C(C)(C)C#N)NC3=CC4=C(C=C3)N=CN(C4=O)C
Procedure, shortened: as §1

[15] = compound: CC1=C(C=C(C=C1)NC(=O)C2=CC(=CC=C2)N(C)C)NC(=O)C3=CC=C(C=C3)O
Procedure, shortened: as §1

[16] = compound: CC1=CC=C(C=C1)SC2=C3C=C(SC3=CN=C2)C(=O)N
Procedure, shortened: as §1

Measured: log2 fold change

NBN (UniProt O60934)
inactive: erlotinib -0.026 | [1] 0.068 | [2] 0.051 | [3] -0.004 | [4] -0.024 | [5] 0.013 | [6] -0.044 | [7] -0.005 | [8] 0.013 | IRAK-1-4 Inhibitor I 0.007 | ibrutinib 0.016 | [9] -0.003 | ralimetinib 0.014 | [10] 0.01 | [11] -0.016 | [12] -0.007 | [13] -0.015 | [14] -0.021 | [15] 0.022 | [16] -0.016

NARS2 (UniProt Q96I59)
inactive: erlotinib -0.027 | [1] -0.034 | [2] -0.045 | [3] 0.031 | [4] 0.022 | [5] -0.021 | [6] -0.04 | [7] 0.027 | [8] -0.027 | IRAK-1-4 Inhibitor I -0.088 | ibrutinib 0.01 | [9] 0.009 | ralimetinib 0.009 | [10] 0.003 | [11] -0.001 | [12] 0.017 | [13] -0.024 | [14] -0.007 | [15] 0.045 | [16] 0.038

NCS1 (UniProt P62166)
inactive: erlotinib -0.003 | [1] 0.008 | [2] 0.012 | [3] -0.04 | [4] 0.023 | [5] 0.025 | [6] -0.008 | [7] 0.02 | [8] -0.005 | IRAK-1-4 Inhibitor I 0.074 | ibrutinib 0.085 | [9] 0.062 | ralimetinib -0.008 | [10] -0.094 | [11] -0.039 | [12] -0.048 | [13] 0.079 | [14] 0.016 | [15] -0.021 | [16] -0.021

2 neighbouring entries already listed, for reference:
NARS2 (UniProt Q96I59)
inactive: erlotinib -0.027 | [1] -0.034 | [2] -0.045 | [3] 0.031 | [4] 0.022 | [5] -0.021 | [6] -0.04 | [7] 0.027 | [8] -0.027 | IRAK-1-4 Inhibitor I -0.088 | ibrutinib 0.01 | [9] 0.009 | ralimetinib 0.009 | [10] 0.003 | [11] -0.001 | [12] 0.017 | [13] -0.024 | [14] -0.007 | [15] 0.045 | [16] 0.038

NCS1 (UniProt P62166)
inactive: erlotinib -0.003 | [1] 0.008 | [2] 0.012 | [3] -0.04 | [4] 0.023 | [5] 0.025 | [6] -0.008 | [7] 0.02 | [8] -0.005 | IRAK-1-4 Inhibitor I 0.074 | ibrutinib 0.085 | [9] 0.062 | ralimetinib -0.008 | [10] -0.094 | [11] -0.039 | [12] -0.048 | [13] 0.079 | [14] 0.016 | [15] -0.021 | [16] -0.021

Remaining list, next part.

NAV1 (UniProt Q8NEY1)
inactive: erlotinib -0.015 | [1] 0.151 | [2] 0.006 | [3] -0.032 | [4] -0.003 | [5] -0.044 | [6] -0.045 | [7] -0.066 | [8] 0.049 | IRAK-1-4 Inhibitor I 0.052 | ibrutinib -0.054 | [9] 0.085 | ralimetinib -0.012 | [10] -0.083 | [11] 0.022 | [12] -0.011 | [13] -0.031 | [14] -0.021 | [15] 0.077 | [16] 0.123

NAXD (UniProt Q8IW45)
inactive: erlotinib 0.021 | [1] -0.037 | [2] 0.058 | [3] 0.106 | [4] 0.02 | [5] -0.03 | [6] -0.059 | [7] -0.003 | [8] 0.002 | IRAK-1-4 Inhibitor I -0.01 | ibrutinib 0.059 | [9] -0.019 | ralimetinib -0.021 | [10] -0.047 | [11] 0.006 | [12] -0.003 | [13] -0.036 | [14] 0.04 | [15] -0.001 | [16] 0.016

NAE1 (UniProt Q13564)
inactive: erlotinib -0.005 | [1] -0.006 | [2] 0.02 | [3] -0.019 | [4] -0.004 | [5] 0.013 | [6] -0.008 | [7] -0.004 | [8] -0.006 | IRAK-1-4 Inhibitor I 0.01 | ibrutinib -0.023 | [9] 0.045 | ralimetinib 0.022 | [10] -0.014 | [11] 0.013 | [12] -0.007 | [13] 0.035 | [14] -0.013 | [15] -0.004 | [16] -0.014

MYADM (UniProt Q96S97)
inactive: erlotinib -0.031 | [1] 0.049 | [2] -0.027 | [3] 0.064 | [4] -0.085 | [5] -0.019 | [6] -0.025 | [7] 0.024 | [8] -0.058 | IRAK-1-4 Inhibitor I 0.016 | ibrutinib 0.155 | [9] 0.04 | ralimetinib 0.114 | [10] -0.03 | [11] 0.052 | [12] -0.043 | [13] 0.06 | [14] 0 | [15] 0.009 | [16] 0.01

NCK2 (UniProt O43639)
inactive: erlotinib -0.007 | [1] 0.023 | [2] 0.014 | [3] -0.027 | [4] -0.084 | [5] 0.005 | [6] -0.043 | [7] -0.075 | [8] -0.026 | IRAK-1-4 Inhibitor I -0.015 | ibrutinib 0.081 | [9] 0.021 | ralimetinib 0.089 | [10] 0.03 | [11] -0.022 | [12] 0.045 | [13] 0.098 | [14] -0.036 | [15] -0.051 | [16] 0.002

NARS1 (UniProt O43776)
inactive: erlotinib -0.03 | [1] 0.019 | [2] 0.006 | [3] 0.011 | [4] -0.005 | [5] -0.014 | [6] -0.028 | [7] -0.001 | [8] -0.01 | IRAK-1-4 Inhibitor I -0.01 | ibrutinib -0.006 | [9] 0.009 | ralimetinib 0 | [10] -0.006 | [11] 0.026 | [12] -0.039 | [13] 0.003 | [14] 0.007 | [15] 0.01 | [16] 0.01

NACA4P (UniProt Q9BZK3)
inactive: erlotinib -0.204 | [1] -0.024 | [2] 0.046 | [3] 0.042 | [4] -0.195 | [5] -0.023 | [6] 0.046 | [7] 0.031 | [8] -0.09 | IRAK-1-4 Inhibitor I -0.007 | ibrutinib 0.115 | [9] 0.046 | ralimetinib 0.037 | [10] -0.09 | [11] 0.06 | [12] 0.053 | [13] -0.011 | [14] 0.043 | [15] 0.003 | [16] 0.004

NCAPG (UniProt Q9BPX3)
inactive: erlotinib -0.008 | [1] -0.018 | [2] -0.004 | [3] -0.01 | [4] -0.007 | [5] 0.006 | [6] -0.026 | [7] 0.002 | [8] 0.013 | IRAK-1-4 Inhibitor I -0.011 | ibrutinib 0.006 | [9] 0.015 | ralimetinib 0.027 | [10] -0.015 | [11] -0.026 | [12] -0.009 | [13] -0.02 | [14] 0.014 | [15] 0.018 | [16] 0.024

MYO18A (UniProt Q92614)
inactive: erlotinib -0.023 | [1] -0.025 | [2] 0.019 | [3] -0.016 | [4] -0.015 | [5] 0.004 | [6] -0.018 | [7] -0.023 | [8] 0.024 | IRAK-1-4 Inhibitor I -0.021 | ibrutinib 0.028 | [9] -0.013 | ralimetinib 0.016 | [10] 0.007 | [11] 0.013 | [12] 0.007 | [13] -0.011 | [14] 0.009 | [15] -0.005 | [16] -0.018

MYDGF (UniProt Q969H8)
inactive: erlotinib -0.014 | [1] -0.011 | [2] 0.05 | [3] 0.013 | [4] 0.002 | [5] -0.001 | [6] -0.017 | [7] 0 | [8] -0.005 | IRAK-1-4 Inhibitor I -0.012 | ibrutinib -0.024 | [9] -0.013 | ralimetinib -0.034 | [10] -0.006 | [11] -0.043 | [12] -0.013 | [13] 0.016 | [14] 0.015 | [15] -0.013 | [16] -0.014

NANS (UniProt Q9NR45)
inactive: erlotinib -0.024 | [1] 0.007 | [2] -0.012 | [3] -0.019 | [4] 0.029 | [5] 0.003 | [6] 0.033 | [7] 0 | [8] -0.01 | IRAK-1-4 Inhibitor I -0.011 | ibrutinib 0.014 | [9] 0.006 | ralimetinib 0.019 | [10] 0.012 | [11] 0.002 | [12] -0.012 | [13] 0.021 | [14] -0.012 | [15] 0.008 | [16] -0.001

NCOA6 (UniProt Q14686)
inactive: erlotinib -0.037 | [1] 0.001 | [2] 0.033 | [3] -0.022 | [4] -0.058 | [5] 0.046 | [6] -0.013 | [7] -0.06 | [8] 0.023 | IRAK-1-4 Inhibitor I -0.056 | ibrutinib -0.019 | [9] -0.008 | ralimetinib 0.021 | [10] -0.051 | [11] 0.007 | [12] 0.084 | [13] 0.011 | [14] 0.013 | [15] 0.056 | [16] -0.042
